No constants are given. Whether binding was seen depends on the method and setting. Binding seen in cells or lysates may run through a third protein. A yes stands for co-enrichment or nearness to the bait. Other partners may have been found.
Biological target: T1, Rho GTPase-activating protein 11A (ARHGAP11A) (human (endogenous in Hep3B)) (UniProt Q6P4F7)
T1 sequence: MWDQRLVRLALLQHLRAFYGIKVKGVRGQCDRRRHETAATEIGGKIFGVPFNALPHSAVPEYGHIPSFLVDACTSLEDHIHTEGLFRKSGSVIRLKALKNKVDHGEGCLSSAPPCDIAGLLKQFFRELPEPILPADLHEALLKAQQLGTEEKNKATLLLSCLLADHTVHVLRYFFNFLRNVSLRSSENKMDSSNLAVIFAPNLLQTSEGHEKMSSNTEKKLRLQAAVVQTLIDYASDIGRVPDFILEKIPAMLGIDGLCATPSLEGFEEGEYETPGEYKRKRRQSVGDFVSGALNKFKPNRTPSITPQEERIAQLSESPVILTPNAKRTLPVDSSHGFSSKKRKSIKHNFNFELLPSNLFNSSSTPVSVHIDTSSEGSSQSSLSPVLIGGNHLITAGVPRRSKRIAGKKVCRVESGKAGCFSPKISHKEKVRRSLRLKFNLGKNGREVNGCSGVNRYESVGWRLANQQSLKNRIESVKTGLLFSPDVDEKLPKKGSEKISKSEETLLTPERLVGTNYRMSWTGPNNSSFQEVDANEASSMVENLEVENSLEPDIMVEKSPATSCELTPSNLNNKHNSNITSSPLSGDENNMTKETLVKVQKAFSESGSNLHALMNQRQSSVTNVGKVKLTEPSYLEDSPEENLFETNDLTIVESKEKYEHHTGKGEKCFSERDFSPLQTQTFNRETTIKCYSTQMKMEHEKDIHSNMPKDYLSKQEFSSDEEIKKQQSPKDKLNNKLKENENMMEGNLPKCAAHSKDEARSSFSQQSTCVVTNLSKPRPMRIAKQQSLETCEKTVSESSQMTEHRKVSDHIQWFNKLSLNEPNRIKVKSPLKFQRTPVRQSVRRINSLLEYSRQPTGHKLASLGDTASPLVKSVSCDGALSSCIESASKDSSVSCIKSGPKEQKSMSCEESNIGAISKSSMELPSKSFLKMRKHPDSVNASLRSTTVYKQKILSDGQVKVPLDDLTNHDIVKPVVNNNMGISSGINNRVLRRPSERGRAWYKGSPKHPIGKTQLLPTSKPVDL
Test: affinity purification with mass spectrometry; co-IP with anti-ARHGAP11A antibody-conjugated beads from HCC cell lysate, then LC-MS/MS (nanoLC, TripleTOF 5600+)

binding: binds
B1: HAUS6 (Q7Z4H7) (protein, UniProt Q7Z4H7 1-955)
chain: MSSASVTAFEKEHLWMYLQALGFEPGPATIACGKIVSHTHLGVNMFDKLNRDAFHIISYFLFQVLDQSLTKEVFKFCWPPFDQKSDTEFRKHCCEWIKRISGECGSSFPQVVGSLFLSPGGPKFIHLMYHFARFVAMKYIKSNSKNSSHHFVETFNIKPQDLHKCIARCHFARSRFLQILQRQDCVTQKYQENAQLSVKQVRNLRSECIGLENQIKKMEPYDDHSNMEEKIQKVRSLWASVNETLMFLEKEREVVSSVLSLVNQYALDGTNVAINIPRLLLDKIEKQMFQLHIGNVYEAGKLNLLTVIQLLNEVLKVMKYERCQADQARLTVDLHYLEKETKFQKERLSDLKHMRYRIKDDLTTIRHSVVEKQGEWHKKWKEFLGLSPFSLIKGWTPSVDLLPPMSPLSFDPASEEVYAKSILCQYPASLPDAHKQHNQENGCRGDSDTLGALHDLANSPASFLSQSVSSSDRNSVTVLEKDTKMGTPKEKNEAISKKIPEFEVENSPLSDVAKNTESSAFGGSLPAKKSDPFQKEQDHLVEEVARAVLSDSPQLSEGKEIKLEELIDSLGSNPFLTRNQIPRTPENLITEIRSSWRKAIEMEENRTKEPIQMDAEHREVLPESLPVLHNQREFSMADFLLETTVSDFGQSHLTEEKVISDCECVPQKHVLTSHIDEPPTQNQSDLLNKKVICKQDLECLAFTKLSETSRMETFSPAVGNRIDVMGGSEEEFMKILDHLEVSCNKPSTNKTMLWNSFQISSGISSKSFKDNDFGILHETLPEEVGHLSFNSSSSSEANFKLEPNSPMHGGTLLEDVVGGRQTTPESDFNLQALRSRYEALKKSLSKKREESYLSNSQTPERHKPELSPTPQNVQTDDTLNFLDTCDLHTEHIKPSLRTSIGERKRSLSPLIKFSPVEQRLRTTIACSLGELPNLKEEDILNKSLDAKEPPSDLTR
modifications: ubiquitination peptide SLSKKR identified (site not stated)

From PMC6293628
